Results from PMC4962003.
Results are given in words; binding and its absence hold for the method and conditions named.

Target: T1, MutY (Bacillus subtilis) (UniProt O31584)
T1 sequence: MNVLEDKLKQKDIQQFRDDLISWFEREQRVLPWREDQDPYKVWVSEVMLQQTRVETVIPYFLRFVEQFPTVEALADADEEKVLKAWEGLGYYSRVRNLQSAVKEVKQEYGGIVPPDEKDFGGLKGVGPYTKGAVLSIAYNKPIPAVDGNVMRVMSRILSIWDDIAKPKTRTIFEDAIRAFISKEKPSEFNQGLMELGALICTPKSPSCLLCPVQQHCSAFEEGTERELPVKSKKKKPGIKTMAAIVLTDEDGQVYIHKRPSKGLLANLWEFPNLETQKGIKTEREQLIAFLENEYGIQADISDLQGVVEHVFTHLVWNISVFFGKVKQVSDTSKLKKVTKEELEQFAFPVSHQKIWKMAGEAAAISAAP
Assay: two-hybrid; BacterioMatch bacterial two-hybrid in an E. coli reporter strain; pBT fusion as bait, pTRG fusion as target; read-out is growth of colonies on screening medium (SM) against non-screening medium (NSM)

B1: Mfd (protein, UniProt P37474 1-1177)
chain: MDNIQTFIKESDDFKSIINGLHEGLKEQLLAGLSGSARSVFTSALANETNKPIFLITHNLYQAQKVTDDLTSLLEDRSVLLYPVNELISSEIAVASPELRAQRLDVINRLTNGEAPIVVAPVAAIRRMLPPVEVWKSSQMLIQVGHDIEPDQLASRLVEVGYERSDMVSAPGEFSIRGGIIDIYPLTSENPVRIELFDTEVDSIRSFNSDDQRSIETLTSINIGPAKELIIRPEEKARAMEKIDSGLAASLKKLKADKQKEILHANISHDKERLSEGQTDQELVKYLSYFYEKPASLLDYTPDNTLLILDEVSRIHEMEEQLQKEEAEFITNLLEEGKILHDIRLSFSFQKIVAEQKRPLLYYSLFLRHVHHTSPQNIVNVSGRQMQSFHGQMNVLAGEMERFKKSNFTVVFLGANKERTQKLSSVLADYDIEAAMTDSKKALVQGQVYIMEGELQSGFELPLMKLAVITEEELFKNRVKKKPRKQKLTNAERIKSYSELQIGDYVVHINHGIGKYLGIETLEINGIHKDYLNIHYQGSDKLYVPVEQIDQVQKYVGSEGKEPKLYKLGGSEWKRVKKKVETSVQDIADDLIKLYAEREASKGYAFSPDHEMQREFESAFPYQETEDQLRSIHEIKKDMERERPMDRLLCGDVGYGKTEVAIRAAFKAIGDGKQVALLVPTTILAQQHYETIKERFQDYPINIGLLSRFRTRKEANETIKGLKNGTVDIVIGTHRLLSKDVVYKDLGLLIIDEEQRFGVTHKEKIKQIKANVDVLTLTATPIPRTLHMSMLGVRDLSVIETPPENRFPVQTYVVEYNGALVREAIERELARGGQVYFLYNRVEDIERKADEISMLVPDAKVAYAHGKMTENELETVMLSFLEGESDVLVSTTIIETGVDIPNVNTLIVFDADKMGLSQLYQLRGRVGRSNRVAYAYFTYRRDKVLTEVAEKRLQAIKEFTELGSGFKIAMRDLTIRGAGNLLGAQQHGFIDSVGFDLYSQMLKEAIEERKGDTAKTEQFETEIDVELDAYIPETYIQDGKQKIDMYKRFRSVATIEEKNELQDEMIDRFGNYPKEVEYLFTVAEMKVYARQERVELIKQDKDAVRLTISEEASAEIDGQKLFELGNQYGRQIGLGMEGKKLKISIQTKGRSADEWLDTVLGMLKGLKDVKKQTISST
B1 was tested, and the binding was “no binding”.
